System: plasma vWF
Test: plasma vWF in WT mice given tamoxifen
Format: in vivo
Details: WT mice (n=2); 1 mg per day for 5 days

CC/C(=C(\c1ccccc1)c1ccc(OCCN(C)C)cc1)c1ccccc1 [TX, tamoxifen]
plasma vWF level on day 3: small transient increase
plasma vWF level on day 7, 10, and 14: normalized

Reference: patent publication US9796757B2, “Compositions and method for treating thrombosis” (The Board of Trustees of the University of Illinois, priority 2013, dated 2017)
